Test results as given in patent US20090076067A1, “PHARMACEUTICAL COMPOSITION COMPRISING AZARHODACYANINE COMPOUND AS ACTIVE INGREDIENT” (priority 2005, published 2009).

Tests used:
Format in all cases: cell-based
[1] = system: Plasmodium Falciparum k1 strain; experiment: Chloroquine-resistant tropical malaria protozoa proliferation inhibition screening test; conditions: EC50 rat L6 cells / EC50 Chloroquine-resistant malaria protozoa
Experimental: In this experiment, Plasmodium Falciparum k1 strain protozoa were used. The medium used in the experiment was filter-sterilized RPMI-1640 medium. To the medium human serum was added to achieve 5% concentration. The protozoa was cultured under condition of O2 concentration 3%, CO2 concentration 4%, N2 concentration 93%, and temperature 37° C.
The cultured malaria infected red blood cells were collected by centrifugation, diluted with non-infected red blood cells, to achieve initial infection rate 0.15%. The hematocrit was 2.5%.
To each well in a 96-well culture plate, 200 μL malaria infected culture was added, and either test solution containing test compound at predefined concentration or DMSO having no test compound was added. Each test solution was prepared in duplicate. After 48 hours culture under 37° C., hypoxanthine labeled with radioactive tritium (^3H) of 0.5 μCi was added to each well. After culturing under same condition for 24 hours, the product was collected on a glass fiber filter and washed. The intensity of radiation was measured by Beta plate liquid scintillation counter (Wallac Inc.), to determine malaria protozoa infection rate in test compound samples and control samples.
Using the malaria protozoa infection rate, the proliferation inhibition rate was calculated according to the following equation to determine 50% proliferation inhibition concentration (EC50).
(§1) Proliferation inhibition rate(%)={1−(b−a)/(c−a)}×100
(§2) a: initial infection rate b: infection rate of test compound solution c: infection rate of the control

[2] = system: Trypanosoma brucei rhodensiense (STIB 900 strain); experiment: African trypanosoma protozoa proliferation inhibition screening test; conditions: EC50 rat L6 cells / EC50 African trypanosoma protozoa
Experimental: In this experiment, bloodstream form trypomastigote of Trypanosoma brucei rhodensiense (STIB 900 strain) was used. The medium used in the experiment was prepared as follows: to filter-sterilized MEM medium, 25 mM N-2-hydroxyethylpiperazine-2-ethane sulfonate (HEPES), 1 g/L glucose, 1% MEM nonessential amino acid, 0.2 mM 2-mercaptoethanol, 2 mM pyruvic calcium salt, 0.1 mM hypoxanthine, and 15% heat-treated horse serum were added. The protozoa was cultured under atmosphere of CO2 concentration 5% and temperature 37° C.
Either the compound of the invention or a positive control (melarsoprol) was dissolved into dimethylsulfoxide (DMSO) to prepare test solution having predefined concentration. To each well in a 96-well culture plate, medium containing 8×10^3 protozoa, and either test solution containing the test compound at predefined concentration or DMSO without compound was added. Then medium was added to achieve 100 μL. The test solution was duplicated.
The culture plate was cultured in an incubator for 72 hours, and the proliferation inhibition activity was examined. The activity was determined as follows. To each well, 10 μL Alamar blue water solution was added, then the plate was again cultured for 2 hours. Then the culture plate was mounted on a fluorescence microplate reader (Spectramax Gemeni XS; Molecular Devices Corporation, U.S.), and irradiated with 536 nm excitation wavelength to determine fluorescence at 588 nm. The trypanosoma infection rate of the sample containing the test composition and that of the control sample was calculated.
(§3) Using the protozoa infection rate thus obtained, the proliferation inhibition rate was calculated according to the following equation to determine 50% proliferation inhibition concentration (EC50).
as §1
(§4) a: initial infection rate b: infection rate of the test compound solution c: infection rate of the control

[3] = system: Trypanosoma cruzi (Tulahuen C2C4 strain); experiment: American trypanosoma protozoa proliferation inhibition screening test; conditions: EC50 rat L6 cells / EC50 American trypanosoma protozoa
Experimental: In this experiment, amastigote and trypomastigote of Trypanosoma cruzi (Tulahuen C2C4 strain) infected to rat L6 cells were used. The medium used in the experiment was prepared as follows: to RPMI 1640 medium containing L6 cells, L-glutamine (200 mM) and fetal bovine serum was added to achieve concentration of 1% and 10%, respectively. The culture was conducted under CO2 concentration 5% and temperature 37° C.
Either the compound of the invention or a positive control (benznidazole) was dissolved into DMSO to prepare test solution having predefined concentration. To each well in a 96-well culture plate, medium containing 5×10^3 protozoa was added and precultured for 48 hours. After replacing the medium, either the test solution containing compound of the invention in predefined concentration or DMSO without compound was added. The test solution was duplicated.
The plate was cultured in an incubator for 96 hours, and the proliferation inhibition activity was examined. The activity was determined as follows. To each well, 50 μL CPRG/Nonidet was added, then left for 2 to 6 hours. Then the culture plate was mounted on an absorption microplate reader to determine absorption at 540 nm. The trypanosoma infection rate of the sample containing the test compound and that of the control sample was calculated.
as §3, §1, §4

[4] = system: Leishmania donovani (MHOM/ET/67/L82 strain); experiment: Leishmania protozoa proliferation inhibition screening test; conditions: EC50 rat L6 cells / EC50 leishmania protozoa
Experimental: In this experiment, Leishmania donovani (MHOM/ET/67/L82 strain) was used. The protozoa were successively cultured in Syrian Golden hamsters to obtain amastigote. The medium used in the experiment was SM medium having heat-treated fetal bovine serum 10% added, and pH prepared to 5.4. The culture was conducted under CO2 concentration 5% and temperature 37° C.
Either the compound of the invention or a positive control (miltefosine) was dissolved into DMSO to prepare test solution having predefined concentration. To each well of a 96-well culture plate, medium containing predetermined number of protozoa was added and the culture was pre-treated. The concentration of amastigote was determined by CASY cell analyze system (Scharfe GMBH Co., Germany). Subsequently, either test solution containing compound of the invention in predefined concentration or DMSO without compound was added. The test solution was duplicated.
The plate was cultured in an incubator for 72 hours, and the proliferation inhibition activity was examined. The activity was determined as follows. To each well, 10 μL Alamar blue aqueous solution was added, then cultured again for 2 hours. Then the culture plate was mounted on a fluorescence microplate reader (Spectramax Gemeni XS; Molecular Devices Corporation, U.S), and irradiated 536 nm excitation wavelength to determine […] at 588 nm. The leishmania infection rate of the sample containing the test compound and that of the control sample was calculated.
as §3, §1, §2

Compound | Selective toxicity [1] | Selective toxicity [2] | Selective toxicity [3] | Selective toxicity [4]
CCn1c(=O)/c(=c2\nc3c(o2)=CC=CN3C)s/c1=C1\S/C(=N\c2scc[n+]2C)N(Cc2ccccc2)C1=O [Compound B-22] | >18000 | 1323 | – | –
CCN1C(=O)/C(=c2/s/c(=C3/C=CC=CN3C)c(=O)n2CC)S/C1=N\c1sc2cc(OC)ccc2[n+]1C [Compound B-28] | – | – | 16 | –
CCN1C(=O)/C(=c2/s/c(=C3/C=CC=CN3C)c(=O)n2CC)S/C1=N\c1sc2cc(F)ccc2[n+]1C [Compound B-32] | 980 | 100 | – | 72
CCN1C(=O)/C(=c2/s/c(=C3/C=CC=CN3C)c(=O)n2CC)S/C1=N\c1sc2ccccc2[n+]1C [Compound B-30] | 627 | 119 | 10 | 68
C=CCN1C(=O)/C(=c2/s/c(=C3/SCCN3C)c(=O)n2CC)S/C1=N\c1sc2cc(Cl)ccc2[n+]1C [Compound B-39] | – | 26 | 26 | 76
CCN1C(=O)/C(=c2/s/c(=C3/SCCN3C)c(=O)n2CC)S/C1=N\c1sc2cc(F)ccc2[n+]1C [Compound B-33] | 588 | 66 | 15 | 49
CCN1C(=O)/C(=c2/s/c(=c3/nc4c(o3)=CC=CN4C)c(=O)n2CC)S/C1=N\c1scc[n+]1C [Compound B-20] | 4079 | – | – | –
CCN1C(=O)/C(=c2/s/c(=C3/SCCN3C)c(=O)n2CC)S/C1=N\c1sc2cc(OC)ccc2[n+]1C [Compound B-29] | – | – | 21 | –
